The text below walks through data of patent US20160237119A1 (UNIVERSITY OF TOKYO, published 2016).

Results are given in words; binding and its absence hold for the method and conditions named. Some entries that bind do so weakly or less than the wild type.

The target of this test is T1, c-Met-Fc chimera protein (UniProt P08581 25-932, limits assumed).
T1 construct: Captured on the SPR chip by an anti-IgG antibody; not shown: Fc part
The experiment in a line: SPR (Biacore) as in 9-1, c-Met-Fc on chip. In general terms: SPR reads the build-up and loss of mass on a sensor chip optically.

B1: D4-3 dimeric peptide, linker BMH (peptide)
peptide: YRQFNRRTHEVWNLDCGC
modifications: BMH linker on the added C-terminal Cys; thioether macrocycle; no N-methyl groups
Turning to B1, the binding result was “binds”.
